# Structures can show the parent of a compound that is named as a salt. Some of the results follow. Many values rest on one well or one pass, so single values are uncertain.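 Primary human fetal astrocytes engulfed labelled rat cortical synaptosomes, measured as a red/green ratio corrected for calcein live-cell signal and scaled to the plate median. Toxicity meant calcein falling over 30%; decreased phagocytosis meant below 70% of median above 5 µM.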
# Tests used:
# Human fetal astrocytes [1] = experiment: loss of total cells relative to no-compound high-control median (toxicity); higher = more toxic (fewer cells); conditions: 24 h
# Human fetal astrocytes [2] = experiment: synaptosome phagocytosis (pHrodo/calcein intensity ratio) relative to plate median of data wells; higher = more phagocytosis; conditions: 24 h
Structure (SMILES),loss of total cells (Human fetal astrocytes [1]; 1.39 µM) [%],loss of total cells (Human fetal astrocytes [1]; 2.78 µM) [%],loss of total cells (Human fetal astrocytes [1]; 5.56 µM) [%],loss of total cells (Human fetal astrocytes [1]; 11.11 µM) [%],loss of total cells (Human fetal astrocytes [1]; 22.22 µM) [%],synaptosome phagocytosis (Human fetal astrocytes [2]; 1.39 µM) [%],synaptosome phagocytosis (Human fetal astrocytes [2]; 2.78 µM) [%],synaptosome phagocytosis (Human fetal astrocytes [2]; 5.56 µM) [%],synaptosome phagocytosis (Human fetal astrocytes [2]; 11.11 µM) [%],synaptosome phagocytosis (Human fetal astrocytes [2]; 22.22 µM) [%]
N[C@@H](Cn1ccc(=O)[nH]c1=O)C(=O)O [S(-)-Willardiine],-0.9,-14.7,-3.9,1.1,-34.6,90.3,106,94.1,82.3,134
O=C(O)c1nn(Cc2ccc(Cl)cc2Cl)c2ccccc12 [Lonidamine],-14.7,4.1,1.4,8.6,15,96.3,74.2,70,77,69.9
CCCN1CCC[C@@H](c2cccc(O)c2)C1 [S(-)-3PPP hydrochloride],-17.1,-21.3,-9,-8,-28.8,90.6,109,106,134,130
COC(=O)[C@@H](N)CCCNC(=N)N[N+](=O)[O-] [NG-Nitro-L-arginine methyl ester hydrochloride],-20.4,-6.8,11.7,-1,7.5,88.2,137,95.5,111,150
N[C@@H](Cc1ccc(N(CCCl)CCCl)cc1)C(=O)O [Melphalan],-16.6,-14,8,2.9,29,84.5,97,98.8,84.3,79.2
c1ccc(C2CC2)c(OCC2=NCCN2)c1 [Cirazoline hydrochloride],-4.6,3.4,9.9,-12.1,35.2,119,103,100,111,57.7
COc1ccc(CCN)cc1O [4-Methoxy-3-hydroxyphenethylamine hydrochloride],-2.9,2.6,-9.9,-8.5,3.2,135,131,108,97,111
"CC1C2Cc3ccc(O)cc3C1(C)CCN2CC1CC1 (single isomer, unassigned; (+)) [(+)-Cyclazocine]",-13,-12.8,-8.2,-18.4,4.8,81.5,87.4,90.7,87.3,104
CCCCC/C=C\C/C=C\C/C=C\C/C=C\CCCC(=O)NCC(=O)O [N-arachidonylglycine],-3.3,2.1,5.1,-2.2,10.9,115,104,104,119,121
O=C(Cc1ccc(Cl)c(Cl)c1)N1CCCCC1CN1CCCC1 (stereo not given),-15.2,-18.3,-6.7,13.4,8.2,104,79,109,76.2,103
Cc1sc2ccccc2c1CC1=NCCN1 [Benazoline oxalate],-4,-10.8,-13.4,-11.2,4.1,169,125,107,81.3,133
CC(Cc1ccc(O)cc1)NCC(O)c1cc(O)cc(O)c1 (stereo not given) [Fenoterol hydrobromide],-1.3,-26.5,0.8,2.2,0,87,95.6,112,111,134
O=C(O)CCCc1ccc(N(CCCl)CCCl)cc1 [Chlorambucil],-14.7,-16.5,-19.8,-0.4,-13.9,98.1,99,86.2,139,93.6
Cc1nnc2ccc(-c3cccc(C(F)(F)F)c3)nn12,1.4,5.9,25.8,4.8,29.9,105,97.6,83.5,135,117
"Clc1ccc(N2CCN(Cc3c[nH]c4ncccc34)CC2)cc1 [L-745,870 hydrochloride]",-1.4,21.3,-6.1,9.5,21.5,94.2,114,110,52.7,56.2
CCCN1CCC[C@@H]2Cc3nc(N)ncc3C[C@H]21 [Quinelorane dihydrochloride],-20.8,-27.8,-5.6,-31.8,-46.9,82.7,108,102,98,101
N=C(N)NN [Aminoguanidine hydrochloride],-8.4,-12.9,-3.2,-15.7,13.9,124,95.9,69.1,107,111
"CC(N)C(O)c1ccc(O)c(O)c1 (single isomer, unassigned; (-)) [(-)-alpha-Methylnorepinephrine]",11.3,-13.7,5.8,11.2,2.4,114,113,94.8,130,113

Structure (SMILES),loss of total cells (Human fetal astrocytes [1]; 1.39 µM) [%],loss of total cells (Human fetal astrocytes [1]; 2.78 µM) [%],loss of total cells (Human fetal astrocytes [1]; 5.56 µM) [%],loss of total cells (Human fetal astrocytes [1]; 11.11 µM) [%],loss of total cells (Human fetal astrocytes [1]; 22.22 µM) [%],synaptosome phagocytosis (Human fetal astrocytes [2]; 1.39 µM) [%],synaptosome phagocytosis (Human fetal astrocytes [2]; 2.78 µM) [%],synaptosome phagocytosis (Human fetal astrocytes [2]; 5.56 µM) [%],synaptosome phagocytosis (Human fetal astrocytes [2]; 11.11 µM) [%],synaptosome phagocytosis (Human fetal astrocytes [2]; 22.22 µM) [%]
CP(=O)(O)CCCN,-15.8,-6.3,-4.1,-3.1,10.2,93.5,78.8,89.6,91.7,111
CC(=O)OCC1=C(C(=O)[O-])N2C(=O)[C@@H](NC(=O)CCC[C@@H](N)C(=O)[O-])[C@H]2SC1.[Zn+2] [Cephalosporin C zinc salt],9.9,-15.3,-16.1,-4,16.2,139,124,94.3,102,117
C[C@]12CC[C@@H](O)C[C@@H]1CC[C@@H]1[C@@H]2CC[C@]2(C)C(=O)CC[C@@H]12 [Androsterone],11.4,3,4.1,-6.7,-25.9,89.2,92.8,93,107,68.2
C=C(C)[C@H]1CN[C@H](C(=O)O)[C@H]1CC(=O)O [Kainic acid],-10.9,-5,-9.9,7.6,6.5,87.5,108,114,123,119
CP(=O)(O)C1=CCNCC1,-10.2,-23.1,-20.2,-14.9,-29.6,110,88.8,102,85.2,106
CCCn1c(C)c(C(=O)c2cccc3ccccc23)c2ccccc21,-20.4,12.2,6.1,-2.9,-4.7,94.3,121,95.1,58.2,85.2
CN(C)C(=O)Oc1ccc[n+](C)c1 [Pyridostigmine bromide],-28.9,-23.7,-7.9,-18,-44.4,95.7,109,98.7,86.4,102
CCCN(CCC)C1CCc2ccc(O)cc2C1 (stereo not drawn) [R-(+)-7-Hydroxy-DPAT hydrobromide],-18,-32.5,-2.5,-20.2,-4,94.2,74.8,103,93.7,97.3
CCCN(CCC)C1CCc2ccc(O)cc2C1 (racemic) [(±)-7-Hydroxy-DPAT hydrobromide],-11.3,-12.8,9.9,-18.4,-29.6,90.7,124,87.2,89.1,91.6
CN1CCc2cccc(Cl)c2CC1,-12.7,-17.1,-6.7,-11.9,-18.9,113,96.5,88,94.5,112
CCN(CC)C(=O)NC1CC2c3cccc4[nH]cc(c34)CC2N(C)C1 (stereo not drawn) [R(+)-Terguride],2.2,1.5,7.3,-1.9,-2.5,120,127,108,108,105
CCCCCCCCC(=O)NCc1ccc(O)c(OC)c1 [N-Vanillylnonanamide],-5.9,-9.3,-16.3,5,-9.9,108,102,96.7,99,114
C/C=C(/C)C(=O)O[C@H]1C(C)=C2[C@H]([C@@H]1OC(=O)CCCCCCC)[C@@](C)(OC(C)=O)C[C@H](OC(=O)CCC)[C@@]1(O)[C@H]2OC(=O)[C@@]1(C)O [Thapsigargin],-18.3,-0.3,5.1,20.3,6.6,85.1,79.6,86.1,29,61.2
CC(=O)[C@H]1CC[C@H]2[C@@H]3CC[C@H]4C[C@H](O)CC[C@]4(C)[C@H]3CC[C@]12C [5alpha-Pregnan-3alpha-ol-20-one],0.3,-27.8,17.4,24.1,-27.2,86.1,110,106,125,86.3
COc1cc([C@@H]2c3cc4c(cc3[C@H](O)[C@H]3COC(=O)[C@H]23)OCO4)cc(OC)c1OC [Podophyllotoxin],0.5,-2.3,-0.5,-9.5,15.9,66.3,103,91.3,71.7,103
N[C@@H]1C[C@H]1c1ccccc1 [Tranylcypromine hydrochloride],-16.5,-9.3,-11.8,-13.4,-0.8,81.5,98.9,100,89.9,109
C[C@@H]1O[C@@H](O[C@H]2C[C@@H](O)[C@]3(CO)[C@H]4[C@H](O)C[C@]5(C)[C@@H](C6=CC(=O)OC6)CC[C@]5(O)[C@@H]4CC[C@]3(O)C2)[C@H](O)[C@H](O)[C@H]1O [Ouabain],10.9,31.2,34.3,40,11.2,104,55.3,29.6,13.2,44

# Record cards, as listed above. Order of values: loss of total cells (Human fetal astrocytes [1]; 1.39 µM) [%]	loss of total cells (Human fetal astrocytes [1]; 2.78 µM) [%]	loss of total cells (Human fetal astrocytes [1]; 5.56 µM) [%]	loss of total cells (Human fetal astrocytes [1]; 11.11 µM) [%]	loss of total cells (Human fetal astrocytes [1]; 22.22 µM) [%]	synaptosome phagocytosis (Human fetal astrocytes [2]; 1.39 µM) [%]	synaptosome phagocytosis (Human fetal astrocytes [2]; 2.78 µM) [%]	synaptosome phagocytosis (Human fetal astrocytes [2]; 5.56 µM) [%]	synaptosome phagocytosis (Human fetal astrocytes [2]; 11.11 µM) [%]	synaptosome phagocytosis (Human fetal astrocytes [2]; 22.22 µM) [%]
# CN1CCc2cccc(Cl)c2CC1 as listed: -12.7	-17.1	-6.7	-11.9	-18.9	113	96.5	88	94.5	112
# c1ccc(C2CC2)c(OCC2=NCCN2)c1 [Cirazoline hydrochloride] as listed: -4.6	3.4	9.9	-12.1	35.2	119	103	100	111	57.7

# — the supplement of paper PMC10689618
